Data: PubChem BioAssay AID1347426 (Functional Genomics Laboratory (NCATS/FGL), 2020)
The whole screen tested about 31,000 sequences, of which about 1,400 (4.5%) were called active.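 Rule for the calls: active = median seed-adjusted z-score above 1 or below -1; inactive = the rest.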 This is one part of the list.

Assay: Novel Modifiers of Survival Motor Neuron (SMN) Protein: Gene Identification via Genome-wide siRNA Screen;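 note: luminescence tracks full-length SMN protein made from the SMN2 reporter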
Settings: HEK293T SMN2-luciferase reporter, siRNA knockdown, 72 h; actives lie on both sides
Excerpt: Spinal muscular atrophy (SMA) is the most common neuromuscular autosomal recessive disorder and one of the leading genetic causes of infant death. SMA results from mutations inducing loss of function or deletion in the survival of motor neuron-1 gene (SMN1), leading to deficiency of the survival motor neuron (SMN) protein. Although a second nearly identical gene, SMN2, is retained in humans, its expression primarily produces an aberrantly spliced isoform that is largely unstable and quickly degraded. We performed a genome-wide RNAi screen using a cell-based reporter assay to identify genes and pathways that modulate SMN protein stability. The screen identified over 200 genes that led to the greatest increase or decrease in luciferase expression.
Using HEK293T cells stably expressing a luciferase reporter that combines the promoter and splicing based cassettes in tandem with the major portion of the native SMN2 cDNA with luciferase, we performed a genome-wide RNAi screen to identify modulators of SMN protein levels. Luciferase is expressed when full-length SMN protein is generated with luminescence signal proportional to SMN protein levels. Our luciferase-based reporter assay was used to screen Ambion Silencer Select Human Druggable Genome siRNA library (10418 genes, 3 unique siRNAs per gene) using lipid-based reverse transfection.
Briefly, 1 pmol of each siRNA was spotted to a well of a 384-well plate (Corning, Corning, NY) and 20 microL of serum-free DMEM containing […] of Lipofectamine RNAiMax (Life Technologies, Carlsbad, CA) was then added to each well. Transfected cells were maintained at 37 degrees C in 5% CO2 for 72 hours, 20 microL of ONE-Glo Reagent (Promega) was added to wells for luciferase quantification. Raw luminescence reads were normalized to Ambion(R) Silencer(R) Negative Control #2 siRNA, then log10 transformed. A robust statistical measure of median absolute deviation (MAD) to standardize siRNA activities from each screen. Common Seed Analysis was used to help prioritize clean hits as opposed to those appearing to arise from seed based off-target effects. Candidate modulators were defined as the genes having a MAD score greater than 1.0 or less than -1.0.
For GGCCUAUGCUUGUAUGGCUTT against TP53I13, the median seed-adjusted z-score was inactive: 0. In the case of GCUCAAUGGUUAUUCGGGATT against RFX3, the median seed-adjusted z-score is reported as inactive: 0.17. For CAUUAGAUCUGUGAUUAGATT against MCOLN3, the median seed-adjusted z-score was inactive: -0.09. In the case of GCACCCUAUCUAUGCCUAUTT against GCDH, the median seed-adjusted z-score is reported as inactive: -0.0391. In the case of CAAACAGAUCGGCAGAAAATT against ASIP, the median seed-adjusted z-score is reported as inactive: -0.23. For GGAGCGAAGCUACGACUAUTT against WDTC1, the median seed-adjusted z-score was inactive: -0.412. With GAAGGGAACUUGCCGAAAATT against RHOXF1 the median seed-adjusted z-score was inactive: 0.341. In the case of CCAUGUCCAUAUGCAUCUATT against HYAL1, the median seed-adjusted z-score is reported as inactive: -0.163. For AGAAAAAUGAGAACCUCCATT against SLC25A19, the median seed-adjusted z-score was inactive: -0.104. With CAGGGACUGUGAAAAAGCUTT against ZNF84 the median seed-adjusted z-score was inactive: -0.246. In the case of CUACCAGCGAGAAACAAGATT against TUBGCP6, the median seed-adjusted z-score is reported as inactive: 0. In the case of GACCCUGAGUAGGAAGGAATT against S100A5, the median seed-adjusted z-score is reported as inactive: 0.418. With UCCCAGUGAUUAUACGUUATT against ARPC4 the median seed-adjusted z-score was inactive: -0.211. With CUGAUAGUGCUGAAGCUAATT against NPL the median seed-adjusted z-score was inactive: -0.0324. With AUCCUUAUUUGACACGAAATT against HOXC8 the median seed-adjusted z-score was inactive: -0.0285. For AGAUACGCCUGUCCCACAATT against LRRC3, the median seed-adjusted z-score was inactive: -0.0448. For GAAAACUAGCUCAACAAUATT against PSMA2, the median seed-adjusted z-score was inactive: -0.54. With CGGUCUUCAUGAUUAAGUATT against FZD1 the median seed-adjusted z-score was inactive: -0.163. In the case of GGAUUUCGAACUCAACAAUTT against RASGRF2, the median seed-adjusted z-score is reported as inactive: -0.225. For CUCAGUACCUGGAAACAAATT against NP, the median seed-adjusted z-score was inactive: -0.386. For CAGUGGUAAUCACUAAUCATT against RAD51, the median seed-adjusted z-score was inactive: 0.594. In the case of GGAGUUAGUAUUACGAAAATT against KIF13A, the median seed-adjusted z-score is reported as inactive: 0. In the case of CGACUUCAAGGUGAAGACATT against RAB3B, the median seed-adjusted z-score is reported as inactive: -0.705. With CAUUUGAGCUUAUCAUUAUTT against SLC2A5 the median seed-adjusted z-score was inactive: -0.429. In the case of AGACCAUCGGUAUAGUGGATT against STX10, the median seed-adjusted z-score is reported as inactive: 0.772. In the case of GGAAUGACCUUUACAACUUTT against SAR1A, the median seed-adjusted z-score is reported as inactive: 0.0213. In the case of GGCCUAUCAUGAAUGGAAATT against BTN3A3, the median seed-adjusted z-score is reported as inactive: 0.886. In the case of CACUUAUGAUUAUUAGCAUTT against SLC5A3, the median seed-adjusted z-score is reported as inactive: -0.0305. With GGACAUUUAUGGUCCCAAATT against PLA2G4E the median seed-adjusted z-score was inactive: 0.266. For CAGUCAACCUGAUUUGAGATT against SOX7, the median seed-adjusted z-score was inactive: -0.387. In the case of AGGACGAUGCGGGCAUGUATT against FGFRL1, the median seed-adjusted z-score is reported as inactive: -0.111. In the case of CAGACACUAUUUACCAUAUTT against ART4, the median seed-adjusted z-score is reported as inactive: -0.0808. In the case of GCGAGACACUUGUAGUCCATT against ANGPT4, the median seed-adjusted z-score is reported as inactive: 0. With GGAAAUUGCUUACAGGAAATT against ARSJ the median seed-adjusted z-score was inactive: -0.0978. In the case of CCAACACUUUUGACCUUGATT against SLC6A20, the median seed-adjusted z-score is reported as inactive: -0.306. For GCAAGGACCCAACAACCAATT against TTC9, the median seed-adjusted z-score was inactive: -0.173. With GCAGUGUAAUGGUAUCCGATT against VLDLR the median seed-adjusted z-score was inactive: 0.0487. For GGUCAUCUUCGUGAUCCUUTT against SSTR4, the median seed-adjusted z-score was inactive: -0.00217. For AGAAUUUGCUGAAAUGACUTT against MGC17403, the median seed-adjusted z-score was inactive: 0.204. For GCAUCGACGUGAUCACCAUTT against GPR26, the median seed-adjusted z-score was active: -1.33. In the case of CAAUACACUUCACAAUUGATT against PECAM1, the median seed-adjusted z-score is reported as inactive: 0.0717. For CCACUAGUCUGACGGAUAATT against RIPK1, the median seed-adjusted z-score was inactive: -0.0157. For GAACCAAGCAAGGACUAUATT against GPATCH2, the median seed-adjusted z-score was inactive: 0.0828. In the case of GUUGCUCAGCGUAUCCAAATT against POLI, the median seed-adjusted z-score is reported as inactive: 0.857. In the case of CCUAAACUGCUUAAACGAUTT against MTMR12, the median seed-adjusted z-score is reported as inactive: 0.419. For GGCCUGAAGAGGGAUGAGATT against EDAR, the median seed-adjusted z-score was inactive: 0.137. In the case of GGACGUGACCAAGAUCCUATT against DPP6, the median seed-adjusted z-score is reported as inactive: 0.0505. With CCAUCCGAGUGACCUUAAATT against CYB5B the median seed-adjusted z-score was inactive: 0. With CCUCCACUCGAUUCAGCGATT against MMP28 the median seed-adjusted z-score was inactive: 0.862. With GAACCACAAUGGUCAGCUATT against GAD2 the median seed-adjusted z-score was inactive: 0.0588. With CCAACUUAAUAGUCAACUATT against ELAVL2 the median seed-adjusted z-score was inactive: -0.077. With CCCGCAGGGUUAAAAAGGATT against CYP2A7 the median seed-adjusted z-score was inactive: 0.342. With GUCUGCUUUGUAUAGAUAATT against KLRC3 the median seed-adjusted z-score was inactive: 0.833. In the case of CCAUGUCAGUCCUAGGAAATT against ATRIP, the median seed-adjusted z-score is reported as inactive: 0.353. With GCUUUGUGGUGUGGAGUAUTT against LTB4R the median seed-adjusted z-score was inactive: 0.498. In the case of GGCUAAGUGCUGUCAUUCATT against HACE1, the median seed-adjusted z-score is reported as inactive: 0. In the case of AGGAGAUUCUUGCAAUUAATT against CES2, the median seed-adjusted z-score is reported as inactive: -0.47. For CAACCGAAGCACAAAAGUUTT against ELL2, the median seed-adjusted z-score was inactive: 0.459. With GAACCUUACUUCAUACCUATT against HAT1 the median seed-adjusted z-score was inactive: -0.622. For GGUAGGAGUUAAAAGAUUATT against SRA1, the median seed-adjusted z-score was inactive: 0.677. With GCAAGGUUCUGAGCAAGCUTT against APOA5 the median seed-adjusted z-score was inactive: -0.791. In the case of CGGUAUAAGCUGGUAGAUATT against EVPL, the median seed-adjusted z-score is reported as inactive: -0.146. In the case of ACAUUUAGCAGUAAGAAGATT against CCL13, the median seed-adjusted z-score is reported as inactive: 0.135. In the case of GCACUUACUCCAACGAGGATT against PPP1R9B, the median seed-adjusted z-score is reported as inactive: -0.244. In the case of GAGUUACUACUUAGACAGATT against SMAD4, the median seed-adjusted z-score is reported as inactive: 0.0746. In the case of GGAUUAAGCCCUUCGAAGATT against SOCS5, the median seed-adjusted z-score is reported as inactive: 0.312. With GAUUGAGAAUUCUAUUGUATT against UTP6 the median seed-adjusted z-score was inactive: -0.253. In the case of GCUCCUCGGCAGAUCAAUATT against CYFIP1, the median seed-adjusted z-score is reported as inactive: -0.377. In the case of GUAAGGAUAUUUUGAGUUATT against RNF130, the median seed-adjusted z-score is reported as inactive: -0.21.
